PubChem BioAssay AID1159593 – NIAID – 2016
Shown is one part, drawn at random, of 756 reagents tested. Over the whole deposit, 137 (18%) got an active call. 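Active means p65 translocation went either up or down; genes were judged on the median of six siRNAs, not single siRNAs.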 Unmarked entries are inactive. Reagents against one gene are numbered here. Reagent sequences are not shown. Not stated in the record: the amount of reagent.

- Screen: 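TLR pathway parts governing NF-kappaB p65 translocation after LPS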
- Cell system: RAW264.7 macrophages of mouse, with reporters for p65 (GFP) and the Tnf promoter (mCherry)
- Reagents: single siRNA against mouse genes
- Time to read-out: 48 to 72 hours after siRNA transfection, then LPS for 40 min
- Conditions: LPS (Salmonella minnesota R595) for 40 min before fixation; dose not given
- Read-out: 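Imaged nuclear over cytoplasmic GFP-p65 intensity after 40 min LPS, normalised per plate by median and MAD, robust z-score versus negative controls, mean of replicates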
- Scale: p65 translocation z-score: higher = more nuclear NF-kappaB p65 after LPS
- Hit rule: 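Activity score grows with absolute z: 25 beyond 1, 50 beyond 1.5, 75 beyond 2, 100 beyond 2.5; active calls here sit at about z 1.5 or more either way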
- Meaning of the calls: active = changed p65 translocation (either direction); inactive = no clear change

p65 translocation z-score, by gene and reagent
Map3k8: #1 0.111; #2 0.181; #3 0.386; #4 -0.636; #5 0.206; #6 -0.373
Tlr7: #1 -0.709; #2 -2.6 (active); #3 1.03; #4 -0.51; #5 0.601; #6 0.288
Nfkbie: #1 -1.98 (active); #2 -0.603; #3 -0.964; #4 -1.54 (active); #5 -1.62 (active); #6 -0.624
Il6: #1 -0.222; #2 0.155; #3 0.174; #4 -1.02; #5 0.465; #6 -0.125
Rela: #1 -1.24; #2 -1.01; #3 0.341; #4 2.38 (active); #5 -2.2 (active); #6 -0.814
Tank: #1 -0.294; #2 3.97 (active); #3 0.504; #4 -0.441; #5 1.56 (active); #6 -0.338
Pik3cb: #1 -0.077; #2 -0.962; #3 -0.583; #4 -0.54; #5 -0.956; #6 -1.52 (active)
Map2k1: #1 0.634; #2 0.169; #3 -0.145; #4 0.205; #5 0.658; #6 0.317
Ifnar2: #1 2.08 (active); #2 -1.11; #3 1.25; #4 -0.58; #5 0.6; #6 -1.72 (active)
Elk4: #1 -2.11 (active); #2 -0.228; #3 -0.268; #4 -1.12; #5 -0.802; #6 -0.834
Il12a: #1 -0.272; #2 -0.306; #3 -0.0342; #4 0.0302; #5 -0.875; #6 0.448
Elk1: #1 -0.614; #2 -0.54; #3 -1.25; #4 -1.23; #5 0.177; #6 -2.03 (active)
Nfkb1: #1 2.12 (active); #2 0.117; #3 0.727; #4 -0.391; #5 0.0882; #6 -0.364
Map2k2: #1 0.585; #2 -0.666; #3 -0.246; #4 2.72 (active); #5 -0.187; #6 -0.672
Pik3ca: #1 -0.808; #2 0.228; #3 0.132; #4 -0.793; #5 -1.93 (active); #6 1.13
Pik3r1: #1 -1.68 (active); #2 -1.25; #3 0.626; #4 -0.0679; #5 -1.41; #6 -1.42
Ticam2: #1 -1.4; #2 -0.702; #3 0.571; #4 -0.168; #5 0.228; #6 -1.72 (active)
Tlr3: #1 1.03; #2 -0.6; #3 -0.932; #4 0.347; #5 -0.615; #6 -0.118
Rel: #1 -0.639; #2 0.679; #3 1.03; #4 -0.115; #5 -0.508; #6 -0.445

Targets above whose target name starts with R or r (12):
p65 translocation z-score, by gene and reagent
Rela: #1 -1.24; #2 -1.01; #3 0.341; #4 2.38 (active); #5 -2.2 (active); #6 -0.814
Rel: #1 -0.639; #2 0.679; #3 1.03; #4 -0.115; #5 -0.508; #6 -0.445
